In patent publication US20090226500A1, “SUTURES AND ANTI-SCARRING AGENTS” (Angiotech Pharmaceuticals, Inc, priority 2006, published 2009):
Some of these results come from one statement about several compounds together. For at least one compound, name, drawing or mass did not settle the structure.

System: collagenase (MMP-1)
Assay: IL-1 induced collagenase (MMP-1) mRNA expression in chondrocytes
Format: cell-based, calf
Conditions: chondrocytes in vitro
Protocol: Cells were treated with paclitaxel at various concentrations (10^−7 to 10^−5 M) for 24 hours, then treated with IL-1β (20 ng/ml) for additional 18 hours in the presence of paclitaxel. Total RNA was isolated, and the MMP-1 mRNA levels were determined by Northern blot analysis. The blots were subsequently stripped and re-probed with ^32P-radiolabeled rat GAPDH cDNA, which was used as a housekeeping gene. The results shown are representative of four independent experiments (FIG. 10D). Quantitation of collagenase-1 and stromelysin-expression mRNA levels were conducted. The MMP-1 and MMP-3 expression levels were normalized with GAPDH.
Primary chondrocyte cultures were freshly isolated from calf cartilage. The cells were plated at 2.5×10^6 per ml in 100×20 mm culture dishes and incubated in Ham's F12 medium containing 5% FBS overnight at 37° C. The cells were starved in serum-free medium overnight and then treated with anti-microtubule agents at various concentrations for 6 hours. IL-1 (20 ng/ml) was then added to each plate and the plates incubated for an additional 18 hours. Total RNA was isolated by the acidified guanidine isothiocyanate method and subjected to electrophoresis on a denatured gel Denatured RNA samples (15 μg) were analyzed by gel electrophoresis in a 1% denatured gel, transferred to a nylon membrane and hydridized with the ^32P-labeled collagenase cDNA probe. ^32P-labeled glyceraldehyde phosphate […] (GAPDH) cDNA was used as an internal standard to ensure roughly equal loading. The exposed films were scanned and quantitatively analyzed with IMAGEQUANT.

## N#CC1=C(N)Oc2c(ccc3ccccc23)C1c1cccc([N+](=O)[O-])c1 (stereo not shown) [LY290181]
  concentration that inhibits IL-1-induced collagenase expression: ≤ 100 nM

## Nc1ncnc2c1ccn2[C@@H]1O[C@H](CO)[C@@H](O)[C@H]1O [tubercidin]
  concentration that inhibits IL-1-induced collagenase expression: ≤ 100 nM

## epothilone
  concentration that inhibits IL-1-induced collagenase expression: ≤ 100 nM

## hexylene glycol
  concentration that inhibits IL-1-induced collagenase expression: ≤ 100 nM
